Structures can show the parent of a compound that is named as a salt. Some results were stated once for a whole list of compounds, not compound by compound. Some compounds share one range, which may span the group rather than tell each member.
System: voltage gated Ca^2+ channel currents from dorsal root ganglion neurons
Assay: Ca2+ current measurement, whole cell voltage clamp, dorsal root ganglion cells
Type: cell-based, rat
Settings: 20 μM drug, assessed 3 minutes after drug application, 10 mM Ba2+ as charge carrier

SMILES | percentage inhibition of plateau Ca^2+ current
CNC1CCCC1Oc1ccc(OCc2ccccc2)cc1 (mixture of isomers) [Example 1, (±) 1-Methylamino-2-(4-benzyloxyphenoxy)cyclopentane Hydrochloride (cis and trans)] | 69-90%
CN[C@@H]1CCC[C@@H]1Cc1ccc(OCc2ccccc2)cc1.Cl (racemic) [Example 3, (±) cis-1-methylamino-2-(4-Benzyloxybenzyl)cyclopentane Hydrochloride] | 69-90%
Cl.N[C@@H]1CCC[C@@H]1COc1ccc(C(=O)c2ccccc2)cc1 (racemic) [Example 5, (±) cis-1-Amino-2-(4-benzoylphenoxymethyl)cyclopentane Hydrochloride] | 69-90%
Cl.N[C@@H]1CCC[C@@H]1COc1ccc(Cc2ccccc2)cc1 (racemic) [Example 6, (±) cis-1-Amino-2-(4-benzylphenoxymethyl)cyclopentane Hydrochloride] | 69-90%
CN[C@@H]1CCC[C@@H]1COc1ccc(Cc2ccccc2)cc1.Cl (racemic) [Example 7, (±) cis 1-Methylamino-2-(4-benzylphenoxymethyl)cyclopentane Hydrochloride] | 69-90%

Source: US5817698A, “Substituted cycloalkylamine derivatives and their use as calcium channel antagonists” (SmithKline Beecham plc, priority 1994, dated 1998)
